Assay results reported in PMC10849753, “Antiproliferative activity of platinum(II) and copper(II) complexes containing novel biquinoxaline ligands” (Metallomics: Integrated Biometal Science, 2024).

System: CT-DNA
Assay: UV (electronic absorption) titration with CT-DNA
Design: species or system calf
Conditions: binding to CT-DNA, 310-340 K

Row | Compound | ΔG^o (standard Gibbs free energy change) [J] | ΔH^o (standard enthalpy change) [J] | ΔS^o (standard entropy change) [J/K]
1 | [Cl][Cu][Cl].c1ccc(-c2nc3ccc(-c4ccc5nc(-c6ccccn6)c(-c6ccccn6)nc5c4)cc3nc2-c2ccccn2)nc1 [Cu(tpbq)Cl2] | -22400 | -85300 | −207.58
2 | [Cl][Cu][Cl].c1csc(-c2nc3ccc(-c4ccc5nc(-c6cccs6)c(-c6cccs6)nc5c4)cc3nc2-c2cccs2)c1 [Cu(ttbq)Cl2] | -19600 | -11500 | 26.78
3 | [Cl][Pt][Cl].c1ccc(-c2nc3ccc(-c4ccc5nc(-c6ccccn6)c(-c6ccccn6)nc5c4)cc3nc2-c2ccccn2)nc1 [Pt(tpbq)Cl2] | -19900 | -38200 | −59.89
4 | [Cl][Pt][Cl].c1csc(-c2nc3ccc(-c4ccc5nc(-c6cccs6)c(-c6cccs6)nc5c4)cc3nc2-c2cccs2)c1 [Pt(ttbq)Cl2] | -16800 | -28700 | −39.74
